Measurements reported in PubChem BioAssay AID1224826 (NIAID, 2016)
The deposit covers about 17,000 reagents; shown is a random part of them. About 1,110 of them (6.6%) count as active. 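Active means lowered or raised reporter signal; replicate intensities are raw and not normalised per plate.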 Entries without a mark were called inactive. The numbers tell different reagents against one gene apart. Further read-outs or replicates are left out here. Reagent sequences are not shown.

Test: 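Regulators of Tlr4 signalling leading to Tnf-alpha expression in macrophages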 (primary screen)
System: RAW264.7 G9 macrophages from mouse bearing reporters for p65 (GFP) and the Tnf promoter (mCherry)
Knock-down reagent: siRNA pool against mouse genes, 100 nM
Time to read-out: 16 h of LPS stimulation, after 2 days of siRNA transfection
Challenge: bacterial lipopolysaccharide (Salmonella minnesota R595), 10 ng/ml
Measurement: 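Nuclear mCherry signal of the Tnf promoter reporter measured by imaging after background removal, scaled to each plate median and turned into robust z-scores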
Scale: Tnf reporter robust z-score: higher = stronger Tnf promoter reporter signal after LPS
Hit rule: 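Called active when robust z-score is at most -1.3, matching the median of the Tlr4 knock-down control, or over 3; control wells and wells with under 50 cells never active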
Meaning of the calls: active = Tnf reporter clearly lowered or raised; inactive = no clear change in Tnf reporter

Zfp764 (GeneID 233893) → Tnf reporter robust z-score = -0.93; fewer than 50 cells in well = enough cells in well
Eif3l (GeneID 223691) → Tnf reporter robust z-score = -0.26; fewer than 50 cells in well = enough cells in well
Kars1 (GeneID 85305) → Tnf reporter robust z-score = -0.19; fewer than 50 cells in well = enough cells in well
Tgif1 (GeneID 21815) → Tnf reporter robust z-score = 0.08; fewer than 50 cells in well = enough cells in well
Ubtf (GeneID 21429) → Tnf reporter robust z-score = -0.7; fewer than 50 cells in well = enough cells in well
Rab27b (GeneID 80718) → Tnf reporter robust z-score = 0.68; fewer than 50 cells in well = enough cells in well
Slc22a30 (GeneID 319800) → Tnf reporter robust z-score = 1.29; fewer than 50 cells in well = enough cells in well
Tufm (GeneID 233870) → Tnf reporter robust z-score = 1.08; fewer than 50 cells in well = enough cells in well
Syne3 (GeneID 212073) → fewer than 50 cells in well = fewer than 50 cells per well; well left out of calls
Ing3 (GeneID 71777) → Tnf reporter robust z-score = 1.48; fewer than 50 cells in well = enough cells in well
Tspan32 (GeneID 27027) → Tnf reporter robust z-score = -0.89; fewer than 50 cells in well = enough cells in well
Dnajc2 (GeneID 22791) #1 → Tnf reporter robust z-score = 3.53 (active); fewer than 50 cells in well = enough cells in well
Dnajc2 (GeneID 22791) #2 → Tnf reporter robust z-score = -1.05; fewer than 50 cells in well = enough cells in well
Magohb (GeneID 66441) → fewer than 50 cells in well = fewer than 50 cells per well; well left out of calls
Gas7 (GeneID 14457) → Tnf reporter robust z-score = -0.24; fewer than 50 cells in well = enough cells in well
Gcat (GeneID 26912) → Tnf reporter robust z-score = 1.3; fewer than 50 cells in well = enough cells in well

Part of the list above, reduced to “fewer than 50 cells in well”.
Tufm (GeneID 233870): enough cells in well
Syne3 (GeneID 212073): fewer than 50 cells per well; well left out of calls
Ing3 (GeneID 71777): enough cells in well
Tspan32 (GeneID 27027): enough cells in well

More results follow.
Adora2a (GeneID 11540) → Tnf reporter robust z-score = -1.03; fewer than 50 cells in well = enough cells in well
Ly6f (GeneID 17071) → Tnf reporter robust z-score = -0.03; fewer than 50 cells in well = enough cells in well
Chuk (GeneID 12675) → Tnf reporter robust z-score = -0.69; fewer than 50 cells in well = enough cells in well
Kremen1 (GeneID 84035) → Tnf reporter robust z-score = -0.7; fewer than 50 cells in well = enough cells in well
Ehbp1 (GeneID 216565) → Tnf reporter robust z-score = -0.49; fewer than 50 cells in well = enough cells in well
Nxf1 (GeneID 53319) → fewer than 50 cells in well = fewer than 50 cells per well; well left out of calls
Rassf3 (GeneID 192678) → Tnf reporter robust z-score = -0.69; fewer than 50 cells in well = enough cells in well
Ptms (GeneID 69202) → Tnf reporter robust z-score = 1.55; fewer than 50 cells in well = enough cells in well
P4ha1 (GeneID 18451) → Tnf reporter robust z-score = -0.84; fewer than 50 cells in well = enough cells in well
Epha5 (GeneID 13839) → Tnf reporter robust z-score = 1.15; fewer than 50 cells in well = enough cells in well
Rnf185 (GeneID 193670) → Tnf reporter robust z-score = -0.9; fewer than 50 cells in well = enough cells in well
